Data taken from publication PMC7114187 (Antiviral Research, 2008).

These compounds were tested on influenza neuraminidase (NA), inactivated viral suspensions of influenza A/Udorn/72 (H3N2).
Format: biochemical

Row | SMILES | NA activity inhibition at 50 μM (%)
1 | Clc1ccccc1C(c1ccccc1)(c1ccccc1)n1ccnc1 [Clotrimazole] | 94.5%
2 | Clc1ccc(CSC(Cn2ccnc2)c2ccc(Cl)cc2Cl)cc1 (stereo not shown) [Sulconazole nitrate] | 99.6%
3 | Clc1ccc(COC(Cn2ccnc2)c2ccc(Cl)cc2Cl)c(Cl)c1 (stereo not shown) [Miconazole nitrate] | 100.0%
4 | Clc1ccc(COC(Cn2ccnc2)c2ccc(Cl)cc2Cl)cc1 (stereo not shown) [Econazole nitrate] | 96.4%
